These results are taken from article PMC7854634.

By UniProt entry, the sequences of proteins in these tests, tags left out.
UniProt Q9UL46: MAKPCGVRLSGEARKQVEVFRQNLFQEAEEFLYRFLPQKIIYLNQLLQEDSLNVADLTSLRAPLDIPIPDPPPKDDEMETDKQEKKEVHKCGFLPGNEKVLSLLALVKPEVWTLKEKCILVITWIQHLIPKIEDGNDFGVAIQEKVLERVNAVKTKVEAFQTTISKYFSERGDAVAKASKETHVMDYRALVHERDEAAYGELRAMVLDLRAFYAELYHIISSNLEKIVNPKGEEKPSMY
UniProt Q06323: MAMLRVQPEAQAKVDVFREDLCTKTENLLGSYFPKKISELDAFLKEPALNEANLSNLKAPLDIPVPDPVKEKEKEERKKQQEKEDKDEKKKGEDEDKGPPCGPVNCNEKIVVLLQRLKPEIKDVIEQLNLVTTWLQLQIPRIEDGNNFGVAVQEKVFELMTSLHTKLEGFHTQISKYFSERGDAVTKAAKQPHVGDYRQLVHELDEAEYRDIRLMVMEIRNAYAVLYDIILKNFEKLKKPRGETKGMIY

The target in the experiment is human PA28β (human) (UniProt Q9UL46). Kind of experiment: cryo-EM structure; PA28αβ and iCP mixed at a molar ratio of 10:1, 37 °C 30 min, cross-linked with 0.1% glutaraldehyde at 4 °C for 2 h, glycerol gradient; single-capped (4.1 Å) and double-capped (4.2 Å) complexes and free iCP (3.3 Å) from one data set; both purified.

Results are given in words; binding and its absence hold for the method and conditions named. Some results given as binding are weak or reduced against the parent protein; the word gives no strength.

Regarding human PA28α (from UniProt Q06323 1-249), the binding entry is recorded as “binds”.
